We go through one substance from PMC12931233.

The chains behind the UniProt entries cited, without tags or fusion partners. Where a name states a change or a piece, a line headed by the entry shows the natural chain unless it says otherwise. A line that says so, or that is headed by a name, gives the form on record, which may keep a tag or linker. Residues count along the entry.
shRNA-resistant WT CD47, reconstituted in CD47-depleted MHCC97-H cells (Q08722, residues 19-323): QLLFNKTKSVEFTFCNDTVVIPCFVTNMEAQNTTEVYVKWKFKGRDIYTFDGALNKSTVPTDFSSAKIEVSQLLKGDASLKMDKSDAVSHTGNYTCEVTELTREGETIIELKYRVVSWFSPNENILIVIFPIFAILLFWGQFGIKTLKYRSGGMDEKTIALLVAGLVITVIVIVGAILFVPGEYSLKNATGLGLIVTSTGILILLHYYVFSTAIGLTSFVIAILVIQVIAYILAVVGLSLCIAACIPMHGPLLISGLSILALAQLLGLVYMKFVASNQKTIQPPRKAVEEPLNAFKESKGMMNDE
shRNA-resistant N111Q CD47, reconstituted in CD47-depleted MHCC97-H cells (Q08722, form named): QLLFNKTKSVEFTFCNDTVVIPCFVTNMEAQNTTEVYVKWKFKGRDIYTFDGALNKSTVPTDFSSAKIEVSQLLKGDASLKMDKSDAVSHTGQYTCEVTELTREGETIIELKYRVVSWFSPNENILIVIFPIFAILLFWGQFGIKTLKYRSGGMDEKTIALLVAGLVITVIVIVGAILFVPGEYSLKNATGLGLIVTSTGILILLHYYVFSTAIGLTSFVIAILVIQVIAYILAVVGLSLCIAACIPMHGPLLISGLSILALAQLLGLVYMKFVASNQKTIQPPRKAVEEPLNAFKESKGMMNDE
UniProt Q9HCE7: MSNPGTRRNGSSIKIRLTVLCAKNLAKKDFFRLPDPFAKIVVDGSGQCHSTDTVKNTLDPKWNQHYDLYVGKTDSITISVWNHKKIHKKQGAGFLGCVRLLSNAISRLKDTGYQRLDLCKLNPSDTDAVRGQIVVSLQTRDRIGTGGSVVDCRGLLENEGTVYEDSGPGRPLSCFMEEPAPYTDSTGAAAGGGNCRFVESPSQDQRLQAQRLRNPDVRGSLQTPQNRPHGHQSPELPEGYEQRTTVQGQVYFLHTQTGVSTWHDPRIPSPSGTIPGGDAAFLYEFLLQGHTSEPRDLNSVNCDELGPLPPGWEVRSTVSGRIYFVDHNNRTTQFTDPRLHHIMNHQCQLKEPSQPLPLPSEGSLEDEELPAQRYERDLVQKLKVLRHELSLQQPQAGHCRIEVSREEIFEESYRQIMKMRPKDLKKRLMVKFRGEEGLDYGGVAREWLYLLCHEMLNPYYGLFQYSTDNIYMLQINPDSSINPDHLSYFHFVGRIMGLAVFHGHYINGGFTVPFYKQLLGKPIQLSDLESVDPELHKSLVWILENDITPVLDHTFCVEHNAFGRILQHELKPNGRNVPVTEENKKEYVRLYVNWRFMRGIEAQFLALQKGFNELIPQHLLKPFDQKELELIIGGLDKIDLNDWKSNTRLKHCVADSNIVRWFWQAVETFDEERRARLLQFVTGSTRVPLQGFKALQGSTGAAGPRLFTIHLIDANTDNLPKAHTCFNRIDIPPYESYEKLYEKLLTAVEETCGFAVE

The target in test [1] is shRNA-resistant WT CD47, reconstituted in CD47-depleted MHCC97-H cells (human) (UniProt Q08722). Briefly: co-IP; CD47 WT or N111Q reconstituted MHCC97-H cells expressing vector or HA-FUT8, or treated with DMSO or 2F-Fuc; immunoblotting. A general note: In western blotting, separated proteins are transferred to a membrane and probed.
Test [2] has as its target shRNA-resistant N111Q CD47, reconstituted in CD47-depleted MHCC97-H cells (human) (UniProt Q08722). The description is as above.

No constants are given. Whether binding was seen depends on the method and setting. In cells and extracts the contact can be indirect. Some results given as binding are weak or reduced against the parent protein; the word gives no strength.

Turning to “SMURF1, E3 ubiquitin ligase, in MHCC97-H cells (from UniProt Q9HCE7 1-757) (enzyme)”, the binding result in test [1] and in test [2] was “binds” throughout.
